Reference: the supplement of paper PMC4604168 (melanoma cell lines)
The other results are listed elsewhere or left out. Single values are uncertain, as repeats are few or missing.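 Imaging used 1,536-well plates; nuclei positive for cleaved PARP by antibody were divided by total DNA-stained nuclei to yield the apoptosis fraction. Doses for screening kept most cells viable, and cell lines differ markedly in resting and induced cleaved-PARP levels.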

Test system: MZ2-MEL
Experiment: cleaved PARP positive nuclei fraction relative to DMSO control; melanoma cells; higher = more apoptosis
Settings: library dose: low library concentration; 72 h

First: Cn1cnc2c(F)c(Nc3ccc(Br)cc3Cl)c(C(=O)NOCCO)cc21 [selumetinib] + Cn1nnc2c(C(N)=O)ncn2c1=O [temozolomide] (first compound 0.015 µM, partner dose 2 µM)
Second: C[C@@H](N)c1ccc(C(=O)Nc2ccnc3[nH]ccc23)cc1 + C=CCNC1=C2C[C@@H](C)C[C@H](OC)[C@H](O)[C@@H](C)/C=C(\C)[C@H](OC(N)=O)[C@@H](OC)/C=C\C=C(/C)C(=O)NC(=CC1=O)C2=O [Tanespimycin] (first compound 0.4 µM, partner dose 0.002 µM)
The “cleaved PARP positive nuclei fraction” value of the first is lower: 113% for the first, 200% for the second.

Going from `C[C@]1(O)C[C@@H](c2nc(-c3ccc4ccc(-c5ccccc5)nc4c3)c3c(N)nccn32)C1` + CS(=O)(=O)c1ccc(C(=O)Nc2ccc(Cl)c(-c3ccccn3)c2)c(Cl)c1 [vismodegib] (first compound 0.4 µM, partner dose 1 µM) to `CC1(C)CCC(c2ccc(Cl)cc2)=C(CN2CCN(c3ccc(C(=O)NS(=O)(=O)c4ccc(N[C@H](CCN5CCOCC5)CSc5ccccc5)c(S(=O)(=O)C(F)(F)F)c4)cc3)CC2)C1` + OCc1c[nH]c2ccccc12 [Indole-3-carbinol] (first compound 0.4 µM, partner dose 0.8 µM), the “cleaved PARP positive nuclei fraction” value rises from 92% to 222%.

First: C[C@]1(O)C[C@@H](c2nc(-c3ccc4ccc(-c5ccccc5)nc4c3)c3c(N)nccn32)C1 + Cc1cc(Nc2cc(N3CCN(C)CC3)nc(/C=C/c3ccccc3)n2)n[nH]1 [ENMD2076] (first compound 0.4 µM, partner dose 0.04 µM)
Second: CC(=O)O[C@@]12CO[C@@H]1C[C@H](O)[C@@]1(C)C(=O)[C@H](O)C3=C(C)[C@@H](OC(=O)[C@H](O)[C@@H](NC(=O)OC(C)(C)C)c4ccccc4)C[C@@](O)([C@@H](OC(=O)c4ccccc4)[C@H]21)C3(C)C [Docetaxel] + NC1(c2ccc(-c3nc4ccn5c(=O)[nH]nc5c4cc3-c3ccccc3)cc2)CCC1 [MK2206] (first compound 0.0001 µM, partner dose 0.4 µM)
The “cleaved PARP positive nuclei fraction” value of the first is lower: 128% for the first, 642% for the second.

Compared with `Cn1cnc2c(F)c(Nc3ccc(Br)cc3Cl)c(C(=O)NOCCO)cc21` [selumetinib] + O=C(O)[C@@H]1[O][Sb](=[O])([O][Sb]2(=[O])[O][C@H]([C@H](O)CO)[C@H](O)[C@H](C(=O)O)[O]2)[O][C@H]([C@H](O)CO)[C@@H]1O [stibogluconate] (first compound 0.015 µM, partner dose 2 µM), `C[C@]1(O)C[C@@H](c2nc(-c3ccc4ccc(-c5ccccc5)nc4c3)c3c(N)nccn32)C1` + Nc1cccc2c1CN(C1CCC(=O)NC1=O)C2=O [lenalidomide] (first compound 0.4 µM, partner dose 1 µM) is higher in “cleaved PARP positive nuclei fraction” value: 150% for the first, 196% for the second.

Compared with `Cn1cnc2c(F)c(Nc3ccc(Br)cc3Cl)c(C(=O)NOCCO)cc21` [selumetinib] + CCN(CC)CCNC(=O)c1c(C)[nH]c(/C=C2\C(=O)Nc3ccc(F)cc32)c1C [sunitinib] (first compound 0.015 µM, partner dose 0.4 µM), `Cn1sc(=O)n(Cc2ccccc2)c1=O` + CN(c1ncccc1CNc1nc(Nc2ccc3c(c2)CC(=O)N3)ncc1C(F)(F)F)S(C)(=O)=O [PF562271] (first compound 0.4 µM, partner dose 0.08 µM) is lower in “cleaved PARP positive nuclei fraction” value: 303% for the first, 58.6% for the second.

Test system: MeWo
Experiment: as above
Settings: library dose: low library concentration; 72 h

Going from `NC(=O)c1ccc(N(C(N)=O)c2c(F)cccc2F)nc1-c1ccc(F)cc1F` + Nc1nc(F)nc2c1ncn2[C@@H]1O[C@H](CO)[C@@H](O)[C@@H]1O [fludarabine] (first compound 0.4 µM, partner dose 0.2 µM) to `CS(=O)(=O)c1ccc(C(=O)Nc2ccc(Cl)c(-c3ccccn3)c2)c(Cl)c1` [vismodegib] + CC(C)C[C@H](NC(=O)[C@H](Cc1ccccc1)NC(=O)c1cnccn1)B(O)O [Bortezomib] (first compound 1 µM, partner dose 0.001 µM), the “cleaved PARP positive nuclei fraction” value falls from 400% to 89.7%.

Going from `Cn1sc(=O)n(Cc2ccccc2)c1=O` + CNC(=O)c1cc(Oc2ccc(NC(=O)Nc3ccc(Cl)c(C(F)(F)F)c3)cc2)ccn1 [sorafenib] (first compound 0.4 µM, partner dose 0.4 µM) to `CS(=O)(=O)c1ccc(C(=O)Nc2ccc(Cl)c(-c3ccccn3)c2)c(Cl)c1` [vismodegib] + CC(=O)c1c(C)c2cnc(Nc3ccc(N4CCNCC4)cn3)nc2n(C2CCCC2)c1=O [palbociclib] (first compound 1 µM, partner dose 0.04 µM), the “cleaved PARP positive nuclei fraction” value rises from 67.6% to 104%.

First: COc1ccc(C2=N[C@@H](c3ccc(Cl)cc3)[C@@H](c3ccc(Cl)cc3)N2C(=O)N2CCNC(=O)C2)c(OC(C)C)c1 [Nutlin-3] + CN(c1ncccc1CNc1nc(Nc2ccc3c(c2)CC(=O)N3)ncc1C(F)(F)F)S(C)(=O)=O [PF562271] (first compound 0.1 µM, partner dose 0.08 µM)
Second: CS(=O)(=O)c1ccc(C(=O)Nc2ccc(Cl)c(-c3ccccn3)c2)c(Cl)c1 [vismodegib] + Nc1nc(F)nc2c1ncn2[C@@H]1O[C@H](CO)[C@@H](O)[C@@H]1O [fludarabine] (first compound 1 µM, partner dose 0.2 µM)
The “cleaved PARP positive nuclei fraction” value of the first is lower: 108% for the first, 551% for the second.

First: CN(c1ncccc1CNc1nc(Nc2ccc3c(c2)CC(=O)N3)ncc1C(F)(F)F)S(C)(=O)=O + Cn1c(=O)n(-c2ccc(C(C)(C)C#N)cc2)c2c3cc(-c4cnc5ccccc5c4)ccc3ncc21 [NVP-BEZ235] (first compound 0.08 µM, partner dose 0.004 µM)
Second: Cn1cnc2c(F)c(Nc3ccc(Br)cc3Cl)c(C(=O)NOCCO)cc21 [selumetinib] + Cn1c(Nc2ccc(C(F)(F)F)cc2)nc2cc(Oc3ccnc(-c4ncc(C(F)(F)F)[nH]4)c3)ccc21 [CHIR265] (first compound 0.015 µM, partner dose 0.08 µM)
The “cleaved PARP positive nuclei fraction” value of the first is higher: 470% for the first, 156% for the second.

Compared with `Cn1sc(=O)n(Cc2ccccc2)c1=O` + CCN(CC)CCNC(=O)c1c(C)[nH]c(/C=C2\C(=O)Nc3ccc(F)cc32)c1C [sunitinib] (first compound 0.4 µM, partner dose 0.4 µM), `Cn1cnc2c(F)c(Nc3ccc(Br)cc3Cl)c(C(=O)NOCCO)cc21` [selumetinib] + Nc1nc(F)nc2c1ncn2[C@@H]1O[C@H](CO)[C@@H](O)[C@@H]1O [fludarabine] (first compound 0.015 µM, partner dose 0.2 µM) is higher in “cleaved PARP positive nuclei fraction” value: 50.4% for the first, 337% for the second.

Compared with `CC1(C)CCC(c2ccc(Cl)cc2)=C(CN2CCN(c3ccc(C(=O)NS(=O)(=O)c4ccc(N[C@H](CCN5CCOCC5)CSc5ccccc5)c(S(=O)(=O)C(F)(F)F)c4)cc3)CC2)C1` + Cc1nc(Nc2ncc(C(=O)Nc3c(C)cccc3Cl)s2)cc(N2CCN(CCO)CC2)n1 [dasatanib] (first compound 0.4 µM, partner dose 0.004 µM), `CC(=O)O[C@@]12CO[C@@H]1C[C@H](O)[C@@]1(C)C(=O)[C@H](O)C3=C(C)[C@@H](OC(=O)[C@H](O)[C@@H](NC(=O)OC(C)(C)C)c4ccccc4)C[C@@](O)([C@@H](OC(=O)c4ccccc4)[C@H]21)C3(C)C` [Docetaxel] + C=C(c1ccc(C(=O)O)cc1)c1cc2c(cc1C)C(C)(C)CCC2(C)C [Bexarotene] (first compound 0.0001 µM, partner dose 2 µM) is higher in “cleaved PARP positive nuclei fraction” value: 307% for the first, 449% for the second.

Compared with `C[C@@H](N)c1ccc(C(=O)Nc2ccnc3[nH]ccc23)cc1` + Nc1ncn([C@H]2C[C@H](O)[C@@H](CO)O2)c(=O)n1 [decitabine] (first compound 0.4 µM, partner dose 0.1 µM), `NC(=O)c1ccc(N(C(N)=O)c2c(F)cccc2F)nc1-c1ccc(F)cc1F` + C#Cc1cccc(Nc2ncnc3cc(OCCOC)c(OCCOC)cc23)c1 [erlotinib] (first compound 0.4 µM, partner dose 0.8 µM) is lower in “cleaved PARP positive nuclei fraction” value: 247% for the first, 165% for the second.

Compared with `CC1(C)CCC(c2ccc(Cl)cc2)=C(CN2CCN(c3ccc(C(=O)NS(=O)(=O)c4ccc(N[C@H](CCN5CCOCC5)CSc5ccccc5)c(S(=O)(=O)C(F)(F)F)c4)cc3)CC2)C1` + COCC[n+]1c2c(n(Cc3cnccn3)c1C)C(=O)c1ccccc1C2=O [YM155] (first compound 0.4 µM, partner dose 0.0004 µM), `NC(=O)c1ccc(N(C(N)=O)c2c(F)cccc2F)nc1-c1ccc(F)cc1F` + C=CCNC1=C2C[C@@H](C)C[C@H](OC)[C@H](O)[C@@H](C)/C=C(\C)[C@H](OC(N)=O)[C@@H](OC)/C=C\C=C(/C)C(=O)NC(=CC1=O)C2=O [Tanespimycin] (first compound 0.4 µM, partner dose 0.002 µM) is lower in “cleaved PARP positive nuclei fraction” value: 510% for the first, 137% for the second.

First: Cn1sc(=O)n(Cc2ccccc2)c1=O + CS(=O)(=O)CCNCc1ccc(-c2ccc3ncnc(Nc4ccc(OCc5cccc(F)c5)c(Cl)c4)c3c2)o1 [lapatinib] (first compound 0.4 µM, partner dose 0.8 µM)
Second: CC1(C)CCC(c2ccc(Cl)cc2)=C(CN2CCN(c3ccc(C(=O)NS(=O)(=O)c4ccc(N[C@H](CCN5CCOCC5)CSc5ccccc5)c(S(=O)(=O)C(F)(F)F)c4)cc3)CC2)C1 + C=C(c1ccc(C(=O)O)cc1)c1cc2c(cc1C)C(C)(C)CCC2(C)C [Bexarotene] (first compound 0.4 µM, partner dose 2 µM)
The “cleaved PARP positive nuclei fraction” value of the first is lower: 192% for the first, 746% for the second.
